# These are yes or no findings as the source states them, for the method shown. A result given as binding can be weak or reduced; the word gives no strength.
# Target: BAKΔcysΔN22ΔC25 CT His with K113C mutation (human)
# Assay: cross-linking; 9 µM BAK K113C with or without pre-incubation with 1.5× 14G6, then 4× BID R84C BH3 peptide, with or without 2 mM CuPhe, 1 h at room temperature; disulfide link seen as a band shift on non-reducing SDS-PAGE; both purified
binder,measurement,value
DSESQEDIICNIARHLAQVGDSMDRSIPPGLVNGL (biotin on the N-terminus; C-terminal amide) [BID R84C BH3 peptide],binding,binds
